Results: PubChem BioAssay AID445 (National Center for Advancing Translational Sciences (NCATS), 2006)
Some of the results follow. Further columns of the screen follow, without active or inactive calls. Most of these compounds were active or inconclusive in the main read-out, so they are no random draw. Potencies come from curve fits of mixed quality, noted in brackets.

Assay: IkB Signaling
Conditions: ABC-DLBCL IkBa-CBG/CBR dual luciferase ratio (green luciferase fused to IkBa over red control in OCI-Ly3 lymphoma cells), 4 h
Outline: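 Curves were fitted separately to fusion (green), unfused (red) and ratio luminescence, then classed by r2, magnitude and activity. Cells: OCI-Ly3, 4 h compound plus doxycycline at 37C; 10 uM MG-132 defined full response.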

[1] = measured here: control luc red channel unless noted

Question: Which AC50 [1] does the source give for `N#Cc1c(N)nc(SCc2ccccc2)c(C#N)c1-c1ccco1` here?
Answer: 39.8 µM [falling, partial curve]

Question: For `O=C(c1cccc(Cl)c1)N(Cc1ccco1)Cc1ccccc1Cl`, which AC50 [1] is on record?
Answer: 15.8 µM [falling, partial curve]

Question: Which AC50 [1] does the source give for `CC(=O)N1c2ccccc2C(=O)C1N1CCCCC1` (stereo not given) here?
Answer: 10 µM [falling, partial curve]

Question: With `Cc1nc(N)sc1-c1csc(Nc2ccccn2)n1` as the compound, how does the AC50 [1] read?
Answer: 12.6 µM [falling, partial curve]

Question: For `COc1ccccc1NC(=O)Cn1c(=O)n(-c2cccc(Cl)c2)c(=O)c2c1c1cc(C)ccc1n2C`, which AC50 [1] is on record?
Answer: 0.0501 µM [falling, full curve]

Question: For `COc1cccc(NC(=O)CSc2nnc(-c3cccs3)o2)c1`, which AC50 [1] is on record?
Answer: 39.8 µM [falling, single point]

Question: With `Cc1cc(C)cc(Nc2nnc(-n3nc(C)cc3C)c3ccccc23)c1` as the compound, how does the AC50 [1] read?
Answer: 39.8 µM [falling, single point]

Question: With `Cc1cccc(OCC(=O)Nc2ccc(Cl)c(-c3nc4ccccc4[nH]3)c2)c1` as the compound, how does the AC50 [1] read?
Answer: 10 µM [falling, partial curve]

Question: Which AC50 [1] does the source give for `CCN1CCN(Cc2c(O)ccc3oc(C)c(C(=O)Nc4ccc(C)cc4C)c23)CC1` here?
Answer: 31.6 µM [falling, partial curve]

Question: For `CCc1ccccc1NC(=O)CSc1ncc(S(=O)(=O)c2ccccc2)c(=O)[nH]1`, which AC50 [1] is on record?
Answer: 39.8 µM [falling, single point]

Question: Which AC50 [1] does the source give for `CCN(CC(=O)Nc1c(C(=O)OC)[nH]c2ccc(Cl)cc12)c1ccc2c(c1)OCO2` here?
Answer: 10 µM [falling, partial curve]

Question: For `Cc1oc(-c2ccc(Cl)cc2)nc1CSCC(=O)NCc1ccccc1Cl`, which AC50 [1] is on record?
Answer: 31.6 µM [falling, single point]

Question: For `CCC(=O)N1CCc2cc(Br)cc(S(=O)(=O)N3CCCC(C(=O)NCc4ccc(OC)cc4)C3)c21` (stereo not given), which AC50 [1] is on record?
Answer: 15.8 µM [falling, partial curve]

Question: Which AC50 [1] does the source give for `O=C(c1ccccc1)c1coc2ccc(O)c(Cl)c12` here?
Answer: 20 µM [falling, partial curve]

Question: For `CCCOc1ccc(C2c3c(-c4ccccc4O)n[nH]c3C(=O)N2CCCOCC)cc1OCC` (stereo not given), which AC50 [1] is on record?
Answer: 39.8 µM [falling, single point]

Question: For `O=C(Nc1cccc(F)c1)c1cccc2c1C(=O)N(C1CCCCC1)C2`, which AC50 [1] is on record?
Answer: 39.8 µM [falling, single point]

Question: Which AC50 [1] does the source give for `Cc1ccc(Cl)cc1N1CCN(CCCNC(=O)c2nnc(Cc3cccc(Cl)c3)o2)CC1` here?
Answer: 7.94 µM [falling, partial curve]

Question: Which AC50 [1] does the source give for `O=C(Cn1cc(C(=O)C2CC2)c2ccccc21)Nc1ccc(Br)cc1` here?
Answer: 0.631 µM [falling, full curve]

Question: Which AC50 [1] does the source give for `CCC1CCCCN1CCCNC(=O)c1ccc2c(c1)N(Cc1ccc(Cl)cc1)C(=O)c1ccccc1S2(=O)=O` (stereo not given) here?
Answer: 20 µM [falling, partial curve, poor fit]

Question: Which AC50 [1] does the source give for `c1ccc(CSc2nnc3c(n2)OC(c2ccco2)Nc2ccccc2-3)cc1` (stereo not given) here?
Answer: 10 µM [falling, partial curve]

Question: With `COc1ccc(-c2cc(N)n(S(=O)(=O)c3c(F)c(F)c(F)c(F)c3F)n2)cc1OC` as the compound, how does the AC50 (measured here: IkB-luc green channel) read?
Answer: 5.01 µM [rising, single point]

Question: What about the AC50 (measured here: control luc red channel) of the same compound?
Answer: 25.1 µM [falling, partial curve]

Question: With `COCCOC(=O)c1c(C)oc2ccc(OC(=O)c3c(OC)cccc3OC)cc12` as the compound, how does the AC50 [1] read?
Answer: 7.94 µM [falling, full curve, poor fit]

Question: Which AC50 [1] does the source give for `COc1ccc(C2c3sc(=O)[nH]c3SC3C4CCC(C4)C23)cc1` (stereo not given) here?
Answer: 39.8 µM [falling, single point]

Question: For `Nc1ccc2oc(CCc3ccccc3)nc2c1`, which AC50 [1] is on record?
Answer: 10 µM [falling, partial curve]

Question: For `CC(=O)c1ccc(NC(=O)CCCc2nc(-c3cccc(C)c3)no2)cc1`, which AC50 [1] is on record?
Answer: 12.6 µM [falling, partial curve]

Question: With `O=C(CC1C(=O)N(c2ccccc2)C(=O)N1Cc1ccc2c(c1)OCO2)Nc1ccccc1` (stereo not given) as the compound, how does the AC50 [1] read?
Answer: 39.8 µM [falling, single point]

Question: For `Cc1ccc(-c2cc3c(n2-c2ccccc2F)CC(C)(C)CC3=O)cc1`, which AC50 [1] is on record?
Answer: 0.316 µM [falling, full curve, poor fit]

Question: With `CCOC(=O)c1ccc(CN(Cc2ccccc2C)S(=O)(=O)c2ccc(F)c(C(=O)Nc3cccc(OC)c3)c2)cc1` as the compound, how does the AC50 [1] read?
Answer: 3.16 µM [falling, full curve, poor fit]

Question: Which AC50 [1] does the source give for `CCOC(=O)c1cnc2ccc(C)cc2c1NCCc1ccc(OC)c(OC)c1` here?
Answer: 20 µM [falling, single point]

Question: With `O=C(CN(CCc1ccccc1)S(=O)(=O)c1ccccc1)NCc1ccc(Cl)cc1` as the compound, how does the AC50 [1] read?
Answer: 15.8 µM [falling, partial curve]

Question: For `COc1cc(CNc2ccc3c(c2)ncn3C(C)C)cc(OC)c1OC`, which AC50 [1] is on record?
Answer: 0.0316 µM [falling, full curve, poor fit]

Question: Which AC50 [1] does the source give for `Cc1ccc(Cl)cc1N1CCN(C(=O)c2cc(S(=O)(=O)N3CCCCCC3)cn2C)CC1` here?
Answer: 10 µM [falling, partial curve]

Question: For `O=C(CSc1nc2ccccc2c(=O)[nH]1)c1cccs1`, which AC50 [1] is on record?
Answer: 10 µM [falling, partial curve]

Question: With `Fc1ccccc1OCc1nc(-c2ccc(-n3cccc3)cc2)no1` as the compound, how does the AC50 [1] read?
Answer: 12.6 µM [rising, partial curve]

Question: For `CCOC(=O)c1oc2ccc(S(=O)(=O)Nc3ccc4c(c3)n(C)c(=O)n4C)cc2c1C`, which AC50 [1] is on record?
Answer: 6.31 µM [rising, partial curve] [measured here: IkB-luc green channel]

Question: With `O=C(CSc1nc2c([nH]c3ccccc32)c(=O)n1-c1ccccc1F)Nc1ccccc1C(F)(F)F` as the compound, how does the AC50 [1] read?
Answer: 39.8 µM [falling, partial curve]

Question: Which AC50 [1] does the source give for `Cc1ccc(C(C(=O)NC2CCCC2)N(Cc2cccs2)C(=O)CNC(=O)c2cccs2)o1` (stereo not given) here?
Answer: 39.8 µM [falling, single point]

Question: Which AC50 [1] does the source give for `COc1ccc(NC(=O)C2CCCN(S(=O)(=O)c3ccc4c(c3)CCCN4C(C)=O)C2)cc1` (stereo not given) here?
Answer: 39.8 µM [falling, partial curve]
